The list shows a part of the results. Most values lie at the level of the controls, where differences are scatter.
What follows are targets tested with CN[C@@H]1C[C@H]2O[C@@](C)([C@@H]1OC)n1c3ccccc3c3c4c(c5c6ccccc6n2c5c31)C(=O)NC4 [staurosporine] (assay: log2 fold change of tryptic peptide abundance, ligand vs vehicle (limited proteolysis) (log2 ratio); higher = more trypsin-susceptible (destabilized)). Settings: ligand concentration: 20 uM; sample: mouse liver crude lysate; replicate design: treated separately.

The chains behind the UniProt entries cited, without tags or fusion partners. Where a name states a change or a piece, a line headed by the entry shows the natural chain unless it says otherwise.
UniProt Q00422: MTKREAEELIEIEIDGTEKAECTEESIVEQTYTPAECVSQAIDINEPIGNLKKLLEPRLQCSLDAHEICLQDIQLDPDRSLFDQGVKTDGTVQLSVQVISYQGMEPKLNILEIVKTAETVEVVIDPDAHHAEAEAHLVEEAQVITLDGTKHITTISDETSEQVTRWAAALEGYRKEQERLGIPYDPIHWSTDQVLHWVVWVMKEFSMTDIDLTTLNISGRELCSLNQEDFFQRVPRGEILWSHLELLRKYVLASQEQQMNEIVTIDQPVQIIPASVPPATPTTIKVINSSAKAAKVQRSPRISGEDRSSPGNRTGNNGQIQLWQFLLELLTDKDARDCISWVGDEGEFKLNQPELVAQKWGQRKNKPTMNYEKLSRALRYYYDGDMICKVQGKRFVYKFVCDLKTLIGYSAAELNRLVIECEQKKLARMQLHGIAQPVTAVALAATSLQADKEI
UniProt P97401: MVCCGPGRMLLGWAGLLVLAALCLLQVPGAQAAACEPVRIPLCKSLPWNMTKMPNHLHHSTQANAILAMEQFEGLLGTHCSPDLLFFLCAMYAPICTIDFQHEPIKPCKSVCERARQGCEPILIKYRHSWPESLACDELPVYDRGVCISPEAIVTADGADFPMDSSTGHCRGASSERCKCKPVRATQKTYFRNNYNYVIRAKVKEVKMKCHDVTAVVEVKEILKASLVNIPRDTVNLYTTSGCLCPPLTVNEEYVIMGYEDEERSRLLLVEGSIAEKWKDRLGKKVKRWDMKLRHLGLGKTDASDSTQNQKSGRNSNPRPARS
UniProt P70698: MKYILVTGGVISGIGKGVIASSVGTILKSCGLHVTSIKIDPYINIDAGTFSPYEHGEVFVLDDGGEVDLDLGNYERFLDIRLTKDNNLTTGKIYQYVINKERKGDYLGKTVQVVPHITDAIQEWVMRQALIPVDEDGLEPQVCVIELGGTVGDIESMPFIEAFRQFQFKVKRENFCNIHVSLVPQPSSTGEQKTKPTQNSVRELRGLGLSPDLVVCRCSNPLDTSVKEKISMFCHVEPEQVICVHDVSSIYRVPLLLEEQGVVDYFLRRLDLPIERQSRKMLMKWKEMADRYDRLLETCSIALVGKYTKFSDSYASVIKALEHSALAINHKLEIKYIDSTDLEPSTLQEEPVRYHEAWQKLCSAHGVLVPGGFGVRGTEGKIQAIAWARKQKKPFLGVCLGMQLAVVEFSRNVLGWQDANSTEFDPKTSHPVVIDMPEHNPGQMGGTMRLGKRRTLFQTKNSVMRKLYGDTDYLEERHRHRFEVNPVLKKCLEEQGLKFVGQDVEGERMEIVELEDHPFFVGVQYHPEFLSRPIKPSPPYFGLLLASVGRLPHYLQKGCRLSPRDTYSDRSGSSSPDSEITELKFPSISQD
UniProt P70694: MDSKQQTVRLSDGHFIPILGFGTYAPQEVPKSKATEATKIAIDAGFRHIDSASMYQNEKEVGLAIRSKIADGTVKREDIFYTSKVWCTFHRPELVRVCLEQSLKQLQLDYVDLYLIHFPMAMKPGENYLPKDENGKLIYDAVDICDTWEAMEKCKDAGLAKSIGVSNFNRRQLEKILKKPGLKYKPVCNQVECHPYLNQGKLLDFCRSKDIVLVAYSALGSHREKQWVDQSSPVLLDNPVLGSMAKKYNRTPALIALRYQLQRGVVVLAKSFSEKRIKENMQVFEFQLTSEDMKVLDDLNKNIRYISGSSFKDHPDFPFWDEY
UniProt P70671: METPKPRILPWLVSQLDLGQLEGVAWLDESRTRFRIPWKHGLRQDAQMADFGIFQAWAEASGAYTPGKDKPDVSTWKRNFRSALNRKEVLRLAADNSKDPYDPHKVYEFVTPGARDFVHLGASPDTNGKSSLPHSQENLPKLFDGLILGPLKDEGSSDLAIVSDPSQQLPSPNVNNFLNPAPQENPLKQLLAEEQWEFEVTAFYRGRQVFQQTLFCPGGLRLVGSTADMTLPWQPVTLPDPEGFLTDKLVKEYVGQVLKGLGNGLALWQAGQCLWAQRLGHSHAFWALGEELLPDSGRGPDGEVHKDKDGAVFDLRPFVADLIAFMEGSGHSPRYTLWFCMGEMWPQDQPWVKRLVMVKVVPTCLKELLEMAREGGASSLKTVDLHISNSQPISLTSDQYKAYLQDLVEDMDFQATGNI
UniProt P98195: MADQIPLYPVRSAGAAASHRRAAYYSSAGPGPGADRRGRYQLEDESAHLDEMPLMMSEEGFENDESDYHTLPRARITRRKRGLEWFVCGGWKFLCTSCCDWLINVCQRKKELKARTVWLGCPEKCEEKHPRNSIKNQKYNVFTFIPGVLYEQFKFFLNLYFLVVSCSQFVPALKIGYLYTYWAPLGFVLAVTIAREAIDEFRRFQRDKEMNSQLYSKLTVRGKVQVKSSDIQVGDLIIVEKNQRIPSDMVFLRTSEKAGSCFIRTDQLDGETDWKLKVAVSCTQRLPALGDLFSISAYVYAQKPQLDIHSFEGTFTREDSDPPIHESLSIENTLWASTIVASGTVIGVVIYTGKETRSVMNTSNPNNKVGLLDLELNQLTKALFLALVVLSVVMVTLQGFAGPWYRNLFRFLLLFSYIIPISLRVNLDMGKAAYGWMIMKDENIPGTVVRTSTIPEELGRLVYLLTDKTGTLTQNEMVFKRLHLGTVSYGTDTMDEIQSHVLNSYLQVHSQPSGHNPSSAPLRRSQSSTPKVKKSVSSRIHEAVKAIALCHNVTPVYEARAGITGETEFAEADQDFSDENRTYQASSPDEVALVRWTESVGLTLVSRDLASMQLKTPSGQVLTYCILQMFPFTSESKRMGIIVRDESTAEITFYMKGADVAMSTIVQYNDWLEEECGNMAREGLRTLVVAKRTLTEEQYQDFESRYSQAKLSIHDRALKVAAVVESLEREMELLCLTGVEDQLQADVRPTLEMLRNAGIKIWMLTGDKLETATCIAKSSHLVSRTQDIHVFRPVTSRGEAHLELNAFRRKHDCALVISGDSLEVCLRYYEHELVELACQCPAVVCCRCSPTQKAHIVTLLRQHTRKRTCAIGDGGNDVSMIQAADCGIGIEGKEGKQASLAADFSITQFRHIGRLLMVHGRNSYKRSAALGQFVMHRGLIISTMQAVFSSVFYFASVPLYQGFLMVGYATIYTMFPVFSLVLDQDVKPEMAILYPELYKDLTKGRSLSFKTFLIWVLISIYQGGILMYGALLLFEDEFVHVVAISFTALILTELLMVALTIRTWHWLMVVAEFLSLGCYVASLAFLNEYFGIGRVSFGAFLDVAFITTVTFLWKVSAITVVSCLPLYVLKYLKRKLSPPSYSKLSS
UniProt P70699, whole entry: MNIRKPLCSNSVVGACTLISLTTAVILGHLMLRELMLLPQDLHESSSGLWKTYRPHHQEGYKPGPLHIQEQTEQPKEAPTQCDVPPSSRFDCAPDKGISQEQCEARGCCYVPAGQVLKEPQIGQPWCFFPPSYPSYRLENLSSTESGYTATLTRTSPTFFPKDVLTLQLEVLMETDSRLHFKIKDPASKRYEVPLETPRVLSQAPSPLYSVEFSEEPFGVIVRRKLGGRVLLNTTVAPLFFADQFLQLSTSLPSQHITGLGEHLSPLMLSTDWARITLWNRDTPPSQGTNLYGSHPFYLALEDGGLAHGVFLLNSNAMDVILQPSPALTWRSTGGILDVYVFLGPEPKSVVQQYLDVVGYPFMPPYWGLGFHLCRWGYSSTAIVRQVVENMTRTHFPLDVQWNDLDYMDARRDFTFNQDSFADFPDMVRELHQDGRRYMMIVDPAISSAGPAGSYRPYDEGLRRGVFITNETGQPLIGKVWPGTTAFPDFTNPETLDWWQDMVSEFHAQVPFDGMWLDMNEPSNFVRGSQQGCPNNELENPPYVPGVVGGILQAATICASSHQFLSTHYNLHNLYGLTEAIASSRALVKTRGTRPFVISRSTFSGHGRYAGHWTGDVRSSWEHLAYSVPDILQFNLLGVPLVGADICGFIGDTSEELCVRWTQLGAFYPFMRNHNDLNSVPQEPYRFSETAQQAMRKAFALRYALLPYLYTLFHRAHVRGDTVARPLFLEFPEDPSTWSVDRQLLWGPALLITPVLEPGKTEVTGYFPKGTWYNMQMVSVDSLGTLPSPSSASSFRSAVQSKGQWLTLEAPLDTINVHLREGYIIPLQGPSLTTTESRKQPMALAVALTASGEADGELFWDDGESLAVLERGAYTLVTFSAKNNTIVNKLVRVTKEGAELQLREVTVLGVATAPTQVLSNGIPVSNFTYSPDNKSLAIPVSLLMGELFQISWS
UniProt P97304, whole entry: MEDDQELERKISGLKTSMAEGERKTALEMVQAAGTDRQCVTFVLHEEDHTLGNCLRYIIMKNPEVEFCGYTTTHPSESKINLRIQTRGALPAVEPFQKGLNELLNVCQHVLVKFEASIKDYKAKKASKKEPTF
UniProt P97352: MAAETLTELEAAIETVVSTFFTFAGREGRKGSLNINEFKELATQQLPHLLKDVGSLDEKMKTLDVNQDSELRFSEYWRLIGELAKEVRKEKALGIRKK
UniProt P70255, whole entry: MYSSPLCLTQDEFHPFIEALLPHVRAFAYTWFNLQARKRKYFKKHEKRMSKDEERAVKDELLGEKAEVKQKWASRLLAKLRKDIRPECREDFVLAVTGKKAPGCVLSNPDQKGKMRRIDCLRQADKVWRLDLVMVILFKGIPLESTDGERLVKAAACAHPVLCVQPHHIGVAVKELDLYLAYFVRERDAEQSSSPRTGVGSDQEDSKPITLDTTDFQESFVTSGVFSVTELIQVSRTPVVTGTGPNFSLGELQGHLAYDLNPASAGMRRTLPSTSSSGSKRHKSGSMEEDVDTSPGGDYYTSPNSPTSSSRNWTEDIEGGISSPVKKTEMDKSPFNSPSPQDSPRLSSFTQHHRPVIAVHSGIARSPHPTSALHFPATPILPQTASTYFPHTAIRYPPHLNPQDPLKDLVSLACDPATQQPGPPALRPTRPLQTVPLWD
UniProt P97784: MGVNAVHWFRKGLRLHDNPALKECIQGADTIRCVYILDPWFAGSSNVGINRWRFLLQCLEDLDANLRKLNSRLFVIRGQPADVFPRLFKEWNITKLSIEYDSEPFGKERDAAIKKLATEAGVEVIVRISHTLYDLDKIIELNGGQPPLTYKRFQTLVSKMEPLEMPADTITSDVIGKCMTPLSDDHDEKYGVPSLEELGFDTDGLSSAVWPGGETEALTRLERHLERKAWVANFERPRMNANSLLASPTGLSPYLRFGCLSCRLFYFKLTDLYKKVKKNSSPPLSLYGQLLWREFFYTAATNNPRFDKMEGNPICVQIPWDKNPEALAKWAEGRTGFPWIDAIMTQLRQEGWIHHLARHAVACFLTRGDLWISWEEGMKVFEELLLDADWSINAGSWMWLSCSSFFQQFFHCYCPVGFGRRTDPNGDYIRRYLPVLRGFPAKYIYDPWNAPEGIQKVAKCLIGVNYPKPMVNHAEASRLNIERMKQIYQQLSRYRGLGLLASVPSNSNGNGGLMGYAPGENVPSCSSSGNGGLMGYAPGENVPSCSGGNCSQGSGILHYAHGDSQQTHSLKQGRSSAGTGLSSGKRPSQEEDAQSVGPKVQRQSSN
UniProt Q01514: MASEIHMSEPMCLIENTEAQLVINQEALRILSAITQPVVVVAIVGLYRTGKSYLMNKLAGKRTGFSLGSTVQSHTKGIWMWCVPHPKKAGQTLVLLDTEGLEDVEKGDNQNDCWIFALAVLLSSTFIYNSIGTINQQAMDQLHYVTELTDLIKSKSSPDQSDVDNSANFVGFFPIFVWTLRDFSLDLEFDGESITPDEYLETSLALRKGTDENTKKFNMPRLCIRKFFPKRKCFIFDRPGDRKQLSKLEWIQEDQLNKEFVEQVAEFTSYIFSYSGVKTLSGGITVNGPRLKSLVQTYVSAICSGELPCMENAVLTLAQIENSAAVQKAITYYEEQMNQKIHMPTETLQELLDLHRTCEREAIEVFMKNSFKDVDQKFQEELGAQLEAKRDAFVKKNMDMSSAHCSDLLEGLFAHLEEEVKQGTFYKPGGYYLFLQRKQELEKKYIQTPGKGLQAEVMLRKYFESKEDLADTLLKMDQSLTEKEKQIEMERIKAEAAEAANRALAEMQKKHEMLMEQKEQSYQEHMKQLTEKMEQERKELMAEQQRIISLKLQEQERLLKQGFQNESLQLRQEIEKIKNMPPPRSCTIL
UniProt P70404: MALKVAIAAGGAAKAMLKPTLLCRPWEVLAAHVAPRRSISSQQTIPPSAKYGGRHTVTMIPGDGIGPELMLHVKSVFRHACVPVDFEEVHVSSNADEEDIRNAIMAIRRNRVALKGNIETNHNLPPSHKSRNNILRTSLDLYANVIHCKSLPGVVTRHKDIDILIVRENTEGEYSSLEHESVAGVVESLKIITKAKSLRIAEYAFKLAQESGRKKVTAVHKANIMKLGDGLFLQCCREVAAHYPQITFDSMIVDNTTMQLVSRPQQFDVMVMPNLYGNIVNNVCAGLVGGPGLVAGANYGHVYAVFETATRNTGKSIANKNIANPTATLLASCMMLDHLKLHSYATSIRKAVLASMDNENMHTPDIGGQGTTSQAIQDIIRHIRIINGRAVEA

Target | log2 fold change
UniProt Q00422 (peptide sequence: YYYDGDMICKVQGK, peptide start residue: 380) | -0.545
UniProt P70347 (peptide sequence: TTDKTNPSNLR, peptide start residue: 338) | 0.326
UniProt P97366 (peptide sequence: NKEEVMAVR, peptide start residue: 643) | -0.231
UniProt P97479 (peptide sequence: AEPLKDEAYVQILK, peptide start residue: 1806) | -0.412
UniProt P70290 (peptide sequence: AQFDYDPQKDNLIPCK, peptide start residue: 165) | -0.14
UniProt P97473 (peptide sequence: VTVGDTSCTGQGPSKK, peptide start residue: 66) | 0.181
UniProt P97496 (peptide sequence: LRHFEELETIMDR, peptide start residue: 903) | 0.447
UniProt P97372 (peptide sequence: LLALLALVKPEVWTLKEK, peptide start residue: 100) | 0.512
UniProt Q02111 (peptide sequence: SAGPPEPEVSMR, peptide start residue: 356) | 0.247
UniProt P97401 (peptide sequence: ASLVNIPR, peptide start residue: 225) | 0.0724
UniProt Q00898 (peptide sequence: KPFDPENTK, peptide start residue: 214) | 0.266
UniProt P70698 (peptide sequence: IYQYVINK, peptide start residue: 93) | -0.193
UniProt P97328 (peptide sequence: FGCQVAGKK, peptide start residue: 280) | -0.324
UniProt Q00560 (peptide sequence: SYLPQTVR, peptide start residue: 903) | -0.111
UniProt P70694 (peptide sequence: PVCNQVECHPYLNQGK, peptide start residue: 186) | 0.257
UniProt P70302 (peptide sequence: QALSEVTAALR, peptide start residue: 414) | -0.375
UniProt P70671 (peptide sequence: VYEFVTPGAR, peptide start residue: 106) | 0.133
UniProt P98195 (peptide sequence: AAYYSSAGPGPGADRR, peptide start residue: 22) | -0.215

Target | log2 fold change
UniProt P97427 (peptide sequence: IFNLYPR, peptide start residue: 391) | -0.164
UniProt P70699 (peptide sequence: EGAELQLR, peptide start residue: 896) | 0.166
UniProt Q01339 (peptide sequence: ATVLYQGMR, peptide start residue: 271) | 0.255
UniProt P97304 (peptide sequence: TSMAEGER, peptide start residue: 16) | -0.341
UniProt P97369 (peptide sequence: IPALNAYMK, peptide start residue: 106) | 0.272
UniProt Q02566 (peptide sequence: NLMRLQDLVDK, peptide start residue: 1862) | 0.0311
UniProt P97360 (peptide sequence: SSTPLHVHTVPR, peptide start residue: 29) | -0.119
UniProt P97352 (peptide sequence: DVGSLDEKMK, peptide start residue: 52) | 0.373
UniProt P70255 (peptide sequence: TLPSTSSSGSK, peptide start residue: 270) | -0.248
UniProt P97930 (peptide sequence: YETGTFQK, peptide start residue: 151) | 0.213
UniProt Q00915 (peptide sequence: PVDFNGYWK, peptide start residue: 2) | 0.0729
UniProt P97784 (peptide sequence: RPSQEEDAQSVGPK, peptide start residue: 586) | 0.527
UniProt Q01514 (peptide sequence: TLSGGITVNGPR, peptide start residue: 279) | -0.462
UniProt Q02526 (peptide sequence: KKPYECGECGR, peptide start residue: 84) | -0.00875
UniProt P70404 (peptide sequence: LGDGLFLQCCR, peptide start residue: 227) | 0.0827
UniProt P70662 (peptide sequence: MVAPPAEPAR, peptide start residue: 281) | 0.00453
UniProt P97447 (peptide sequence: YWHDNCFRCAK, peptide start residue: 60) | -0.382
UniProt P70265 (peptide sequence: DKPTHNFPK, peptide start residue: 450) | 0.371

A stretch from the list above, as a working copy:
Target | log2 fold change
UniProt Q00898 (peptide sequence: KPFDPENTK, peptide start residue: 214) | 0.266
UniProt P70698 (peptide sequence: IYQYVINK, peptide start residue: 93) | -0.193

Source: the supplement of paper PMC12819154, “High-throughput peptide-centric local stability assay extends protein–ligand identification to membrane proteins, tissues and bacteria” (Nature Structural & Molecular Biology, 2025)
